Measurements reported in the supplement of paper PMC11732987, “Enantioselective OTUD7B fragment discovery through chemoproteomics screening and high-throughput optimisation” (Communications Chemistry, 2025).
The list shows a part of the results. The data scatter; read single values as rough.

The chains behind the UniProt entries cited, without tags or fusion partners. Where a name states a change or a piece, a line headed by the entry shows the natural chain unless it says otherwise. Residues count along the entry.
UniProt Q01484: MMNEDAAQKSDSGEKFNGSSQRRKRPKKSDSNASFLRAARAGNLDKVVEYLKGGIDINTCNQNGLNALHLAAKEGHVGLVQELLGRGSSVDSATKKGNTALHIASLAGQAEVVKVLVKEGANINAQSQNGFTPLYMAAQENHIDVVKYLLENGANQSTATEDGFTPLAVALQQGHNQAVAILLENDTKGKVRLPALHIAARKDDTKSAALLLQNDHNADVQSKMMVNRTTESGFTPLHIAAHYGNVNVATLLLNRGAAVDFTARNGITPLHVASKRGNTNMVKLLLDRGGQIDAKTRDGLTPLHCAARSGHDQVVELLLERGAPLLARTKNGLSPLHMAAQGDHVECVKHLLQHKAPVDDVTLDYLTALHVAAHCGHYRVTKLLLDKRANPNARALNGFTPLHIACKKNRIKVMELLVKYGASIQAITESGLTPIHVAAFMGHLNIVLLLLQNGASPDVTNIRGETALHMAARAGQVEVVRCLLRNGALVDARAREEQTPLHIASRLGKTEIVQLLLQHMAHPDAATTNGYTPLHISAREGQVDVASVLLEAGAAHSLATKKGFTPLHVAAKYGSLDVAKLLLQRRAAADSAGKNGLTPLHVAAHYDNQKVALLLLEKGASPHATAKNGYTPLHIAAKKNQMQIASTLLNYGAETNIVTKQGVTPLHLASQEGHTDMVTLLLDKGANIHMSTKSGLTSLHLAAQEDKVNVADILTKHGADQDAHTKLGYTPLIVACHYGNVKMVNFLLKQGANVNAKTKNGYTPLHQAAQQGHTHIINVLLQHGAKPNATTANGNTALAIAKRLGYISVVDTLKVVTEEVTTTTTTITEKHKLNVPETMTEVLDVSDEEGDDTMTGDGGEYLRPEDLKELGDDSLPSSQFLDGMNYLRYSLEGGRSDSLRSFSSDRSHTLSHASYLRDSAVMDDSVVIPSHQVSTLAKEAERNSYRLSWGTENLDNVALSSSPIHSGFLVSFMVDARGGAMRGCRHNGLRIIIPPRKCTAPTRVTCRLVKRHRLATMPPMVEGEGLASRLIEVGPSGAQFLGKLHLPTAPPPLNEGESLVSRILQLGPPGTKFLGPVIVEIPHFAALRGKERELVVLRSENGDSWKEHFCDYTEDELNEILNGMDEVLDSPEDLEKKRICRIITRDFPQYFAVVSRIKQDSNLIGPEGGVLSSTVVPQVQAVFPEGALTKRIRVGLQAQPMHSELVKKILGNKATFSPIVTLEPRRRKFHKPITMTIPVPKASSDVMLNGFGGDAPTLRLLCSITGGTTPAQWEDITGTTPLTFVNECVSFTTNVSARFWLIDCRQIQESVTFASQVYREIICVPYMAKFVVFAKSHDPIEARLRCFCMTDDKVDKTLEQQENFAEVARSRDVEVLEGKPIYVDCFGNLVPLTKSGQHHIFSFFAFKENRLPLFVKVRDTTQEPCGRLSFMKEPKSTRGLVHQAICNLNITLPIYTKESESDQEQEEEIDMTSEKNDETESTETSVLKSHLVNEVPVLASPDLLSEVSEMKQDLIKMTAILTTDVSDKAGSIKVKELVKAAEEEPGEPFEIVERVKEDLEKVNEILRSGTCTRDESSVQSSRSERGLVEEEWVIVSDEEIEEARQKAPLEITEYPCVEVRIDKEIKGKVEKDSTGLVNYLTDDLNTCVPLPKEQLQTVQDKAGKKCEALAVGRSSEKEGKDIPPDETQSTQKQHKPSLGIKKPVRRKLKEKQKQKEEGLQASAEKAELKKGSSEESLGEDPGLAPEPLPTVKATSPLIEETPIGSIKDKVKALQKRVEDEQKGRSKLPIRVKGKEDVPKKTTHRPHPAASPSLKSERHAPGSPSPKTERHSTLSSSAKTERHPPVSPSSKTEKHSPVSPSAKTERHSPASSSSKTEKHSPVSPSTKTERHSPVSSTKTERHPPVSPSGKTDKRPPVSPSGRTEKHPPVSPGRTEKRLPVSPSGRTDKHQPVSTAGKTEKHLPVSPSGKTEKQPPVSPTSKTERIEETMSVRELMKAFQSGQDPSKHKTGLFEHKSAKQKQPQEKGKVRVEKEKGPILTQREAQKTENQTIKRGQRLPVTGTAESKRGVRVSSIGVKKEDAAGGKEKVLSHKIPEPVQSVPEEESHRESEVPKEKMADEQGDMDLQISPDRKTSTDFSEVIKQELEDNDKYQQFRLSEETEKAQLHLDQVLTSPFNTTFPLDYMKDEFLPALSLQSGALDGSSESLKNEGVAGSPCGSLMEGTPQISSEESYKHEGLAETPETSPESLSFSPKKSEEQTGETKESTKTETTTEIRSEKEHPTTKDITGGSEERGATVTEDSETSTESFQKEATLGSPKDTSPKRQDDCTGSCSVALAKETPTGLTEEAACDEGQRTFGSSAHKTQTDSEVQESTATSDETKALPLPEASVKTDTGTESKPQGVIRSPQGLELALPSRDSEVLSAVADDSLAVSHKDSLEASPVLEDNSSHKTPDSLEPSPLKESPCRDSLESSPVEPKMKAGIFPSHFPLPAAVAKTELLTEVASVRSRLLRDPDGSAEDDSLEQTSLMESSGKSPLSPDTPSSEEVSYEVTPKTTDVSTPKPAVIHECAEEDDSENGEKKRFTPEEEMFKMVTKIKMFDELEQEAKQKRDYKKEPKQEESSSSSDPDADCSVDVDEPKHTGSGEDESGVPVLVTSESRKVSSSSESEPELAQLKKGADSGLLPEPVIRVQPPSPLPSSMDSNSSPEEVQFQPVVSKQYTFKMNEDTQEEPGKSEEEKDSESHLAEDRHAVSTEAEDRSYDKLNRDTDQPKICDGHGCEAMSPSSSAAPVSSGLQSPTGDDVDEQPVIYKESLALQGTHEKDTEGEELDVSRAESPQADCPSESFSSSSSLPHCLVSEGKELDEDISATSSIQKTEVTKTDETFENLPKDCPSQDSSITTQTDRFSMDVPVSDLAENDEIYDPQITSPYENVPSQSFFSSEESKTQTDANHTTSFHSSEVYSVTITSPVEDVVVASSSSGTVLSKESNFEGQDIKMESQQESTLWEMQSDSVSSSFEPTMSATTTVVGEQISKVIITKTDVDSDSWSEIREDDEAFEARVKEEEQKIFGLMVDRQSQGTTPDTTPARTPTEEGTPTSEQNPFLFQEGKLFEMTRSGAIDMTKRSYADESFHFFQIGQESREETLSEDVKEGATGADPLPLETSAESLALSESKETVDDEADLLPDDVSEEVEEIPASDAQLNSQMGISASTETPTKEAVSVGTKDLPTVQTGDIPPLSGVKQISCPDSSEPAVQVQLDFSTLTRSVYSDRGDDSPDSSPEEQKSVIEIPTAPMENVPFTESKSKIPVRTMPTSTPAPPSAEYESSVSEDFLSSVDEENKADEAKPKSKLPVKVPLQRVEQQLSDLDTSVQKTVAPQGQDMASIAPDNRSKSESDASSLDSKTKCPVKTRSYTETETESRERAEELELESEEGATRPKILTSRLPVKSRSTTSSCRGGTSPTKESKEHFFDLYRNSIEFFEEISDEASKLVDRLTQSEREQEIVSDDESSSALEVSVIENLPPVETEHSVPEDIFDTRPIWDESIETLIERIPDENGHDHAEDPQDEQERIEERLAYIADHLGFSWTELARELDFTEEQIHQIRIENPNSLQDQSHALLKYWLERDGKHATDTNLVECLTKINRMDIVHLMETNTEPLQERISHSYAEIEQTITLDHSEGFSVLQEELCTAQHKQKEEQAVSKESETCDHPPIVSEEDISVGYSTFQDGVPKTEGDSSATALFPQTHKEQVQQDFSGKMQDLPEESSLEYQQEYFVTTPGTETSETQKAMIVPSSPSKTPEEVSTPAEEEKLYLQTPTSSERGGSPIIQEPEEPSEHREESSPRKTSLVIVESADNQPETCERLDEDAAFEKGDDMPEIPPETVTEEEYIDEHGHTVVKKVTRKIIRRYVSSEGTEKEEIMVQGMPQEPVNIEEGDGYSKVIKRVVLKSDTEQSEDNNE
UniProt O60488, 361-380: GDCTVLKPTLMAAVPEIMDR
UniProt Q9BSE5: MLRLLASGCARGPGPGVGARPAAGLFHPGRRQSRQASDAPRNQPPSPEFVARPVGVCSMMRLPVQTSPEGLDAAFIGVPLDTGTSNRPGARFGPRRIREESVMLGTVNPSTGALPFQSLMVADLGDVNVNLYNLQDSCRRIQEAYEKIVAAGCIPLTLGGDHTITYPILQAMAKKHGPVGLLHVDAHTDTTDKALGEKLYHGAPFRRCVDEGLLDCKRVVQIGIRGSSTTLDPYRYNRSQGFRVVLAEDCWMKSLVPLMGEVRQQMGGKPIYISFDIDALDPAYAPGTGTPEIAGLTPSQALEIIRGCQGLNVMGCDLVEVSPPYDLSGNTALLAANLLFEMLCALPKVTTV
UniProt Q5TGY3: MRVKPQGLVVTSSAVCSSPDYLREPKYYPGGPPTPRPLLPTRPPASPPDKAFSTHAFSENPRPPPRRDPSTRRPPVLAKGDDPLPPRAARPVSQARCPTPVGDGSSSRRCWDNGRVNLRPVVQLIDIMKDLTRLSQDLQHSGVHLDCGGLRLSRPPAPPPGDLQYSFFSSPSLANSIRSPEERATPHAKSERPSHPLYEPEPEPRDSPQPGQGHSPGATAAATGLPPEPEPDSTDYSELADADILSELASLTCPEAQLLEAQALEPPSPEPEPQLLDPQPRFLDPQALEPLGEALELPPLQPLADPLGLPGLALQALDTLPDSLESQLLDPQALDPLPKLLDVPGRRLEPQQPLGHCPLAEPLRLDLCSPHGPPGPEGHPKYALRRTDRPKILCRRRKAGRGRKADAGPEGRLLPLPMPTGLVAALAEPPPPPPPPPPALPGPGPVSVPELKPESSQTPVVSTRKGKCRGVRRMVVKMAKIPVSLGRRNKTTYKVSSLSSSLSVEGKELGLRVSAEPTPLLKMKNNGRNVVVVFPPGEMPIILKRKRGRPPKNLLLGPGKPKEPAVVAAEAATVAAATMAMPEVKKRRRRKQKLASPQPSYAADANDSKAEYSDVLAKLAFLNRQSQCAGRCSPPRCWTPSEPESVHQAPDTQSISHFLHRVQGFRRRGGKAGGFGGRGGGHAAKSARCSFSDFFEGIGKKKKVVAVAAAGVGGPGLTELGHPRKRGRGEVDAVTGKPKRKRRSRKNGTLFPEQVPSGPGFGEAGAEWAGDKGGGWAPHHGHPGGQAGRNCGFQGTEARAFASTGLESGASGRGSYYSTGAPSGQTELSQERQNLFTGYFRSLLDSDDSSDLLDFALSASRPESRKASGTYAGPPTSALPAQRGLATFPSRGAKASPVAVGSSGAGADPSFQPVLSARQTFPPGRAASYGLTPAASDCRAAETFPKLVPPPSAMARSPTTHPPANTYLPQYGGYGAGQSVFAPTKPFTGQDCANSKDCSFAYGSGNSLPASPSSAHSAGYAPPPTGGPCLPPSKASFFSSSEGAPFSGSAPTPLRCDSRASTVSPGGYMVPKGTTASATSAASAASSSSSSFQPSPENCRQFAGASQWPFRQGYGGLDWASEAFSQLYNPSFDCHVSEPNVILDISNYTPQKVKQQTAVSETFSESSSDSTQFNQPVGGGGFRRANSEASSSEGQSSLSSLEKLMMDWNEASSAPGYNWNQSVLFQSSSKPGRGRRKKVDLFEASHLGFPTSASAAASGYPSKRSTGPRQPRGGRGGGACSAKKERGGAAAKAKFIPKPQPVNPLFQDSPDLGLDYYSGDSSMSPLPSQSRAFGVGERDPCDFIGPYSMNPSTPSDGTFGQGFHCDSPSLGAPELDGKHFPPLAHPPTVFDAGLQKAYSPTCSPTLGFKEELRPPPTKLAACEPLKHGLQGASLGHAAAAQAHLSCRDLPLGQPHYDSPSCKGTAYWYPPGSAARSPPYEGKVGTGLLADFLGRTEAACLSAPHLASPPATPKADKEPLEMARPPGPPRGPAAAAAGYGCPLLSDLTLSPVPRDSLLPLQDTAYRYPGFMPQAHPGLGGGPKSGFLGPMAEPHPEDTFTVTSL
UniProt Q9BWD1, 342-361: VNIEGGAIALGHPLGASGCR
UniProt Q9P2G1, 11-31: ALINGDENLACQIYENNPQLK
UniProt P49419: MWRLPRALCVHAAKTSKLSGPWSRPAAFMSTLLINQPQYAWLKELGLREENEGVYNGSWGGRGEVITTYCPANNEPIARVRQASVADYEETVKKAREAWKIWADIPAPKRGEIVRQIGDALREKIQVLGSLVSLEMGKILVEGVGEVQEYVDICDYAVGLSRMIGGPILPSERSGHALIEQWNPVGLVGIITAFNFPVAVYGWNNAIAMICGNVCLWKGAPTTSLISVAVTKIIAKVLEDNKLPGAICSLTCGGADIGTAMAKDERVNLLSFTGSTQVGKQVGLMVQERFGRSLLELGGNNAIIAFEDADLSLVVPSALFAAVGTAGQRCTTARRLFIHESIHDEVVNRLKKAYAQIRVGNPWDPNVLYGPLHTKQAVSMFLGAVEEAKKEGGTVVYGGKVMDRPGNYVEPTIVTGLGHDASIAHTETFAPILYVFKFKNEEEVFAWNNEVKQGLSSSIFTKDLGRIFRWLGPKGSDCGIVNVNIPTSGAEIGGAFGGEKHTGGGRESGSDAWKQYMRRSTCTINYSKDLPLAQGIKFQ

Legend:
[1] = compound: ClCC(=O)N[C@@H]1CCCc2ccccc12; assay: log2 mean competition ratio of IA-DTB cysteine labelling (DMSO/compound) (log2 ratio); higher = stronger cysteine engagement by compound; conditions: treatment time: 4 h, cell line lysate: HEK293T
Protocol: (§1)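 IA-DTB competitive cysteine chemoproteomics in HEK293T RIPA lysate. Lysates were treated with compound 29 or 30 at 50 or 200 µM for 4 h, then IA-DTB (500 µM, 1 h), trypsin-digested, NeutrAvidin-enriched and analysed by diaPASEF. Competition ratio = intensity DMSO / intensity compound (n=4 treated, n=64 DMSO); binding: mean log2 CR ≥ 1 and p ≤ 0.05 plus QC filters. Target is the cysteine site.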

[2] = compound: ClCC(=O)N[C@H]1CCCc2ccccc12; assay: as above; conditions: treatment time: 4 h, cell line lysate: HEK293T
Protocol: as §1

| Target | log2 mean competition ratio ([1]; 50 µM) | log2 mean competition ratio ([1]; 200 µM) | log2 mean competition ratio ([2]; 50 µM) | log2 mean competition ratio ([2]; 200 µM) |
| --- | --- | --- | --- | --- |
| AKT2 C297 (UniProt P31751) | 0.245 | 0.276 | 0.519 | 0.646 |
| AKAP13 C1666 (UniProt Q12802) | -0.135 | 0.263 | 0.266 | 0.148 |
| AFAP1 C395 (UniProt Q8N556) | -0.191 | -0.0909 | -0.126 | -0.143 |
| ALG13 C242 (UniProt Q9NP73) | 0.0562 | 0.198 | 0.0251 | 0.329 |
| ANK2 C3859 (UniProt Q01484) | 0.0969 | 0.531 | -0.725 | 0.26 |
| ACSL4 C363 (UniProt O60488) | 0.41 | -0.101 | -0.311 | -0.0851 |
| AGMAT C250 (UniProt Q9BSE5) | -0.00916 |  | 0.221 |  |
| AKAP9 C2010 (UniProt Q99996) | -0.181 | 0.000148 | -0.199 | -0.125 |
| AHDC1 C791 (UniProt Q5TGY3) | -0.0351 | 0.0602 | -0.0381 | -0.0152 |
| ACAT2 C360 (UniProt Q9BWD1) | 0.355 | 0.0829 | 0.164 | -0.166 |
| AGAP1 C417 (UniProt Q9UPQ3) | 0.0231 | 0.175 | -0.307 | -0.0087 |
| AKT2 C124 (UniProt P31751) | -0.0662 | -0.281 | 0.213 | -0.00528 |
| ACSF3 C399 (UniProt Q4G176) | -0.0675 | -0.00113 | -0.209 | -0.0674 |
| AMOT C1047 (UniProt Q4VCS5) | -0.149 | -0.616 | 0.367 | -0.402 |
| ANKIB1 C21 (UniProt Q9P2G1) | -0.149 | -0.00838 | -0.258 | -0.0541 |
| AK6 C81 (UniProt Q9Y3D8) | -0.339 | 0.145 | -0.322 | -0.0183 |
| ACSL3 C166 (UniProt O95573) | -0.17 | -0.342 | -0.145 | -0.404 |
| ALDH7A1 C70 (UniProt P49419) | -0.135 | -0.287 | 0.152 | -0.276 |
| ADSS2 C182 (UniProt P30520) | -0.00701 | 0.1 | 0.125 | 0.28 |
